PubChem BioAssay AID1259254 – NCATS, 2017
Test: 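Finding genes that stop cells copying their DNA twice in one cycle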 (primary screen). Cells: human HCT116 colorectal cancer cells. Knock-down reagent: single siRNA against human genes. Duration: 3 days. Detection: 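Nuclei stained with Hoechst and imaged; cell-cycle phase assigned by DNA content; G2 share scaled per plate, non-targeting siRNA 0%, GMNN siRNA 100%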. Reading the numbers: G2 robust z-score and G2 cells, % of GMNN control: higher = more G2 cells, more excess DNA replication; raw share of cells in G2: higher = larger share of cells with G2 DNA content. Call rule: 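An siRNA counts as active if its G2 robust z-score lies at least 5 MADs above the screen median; here such calls match roughly 38% of GMNN control or more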.
Shown is an unselected part of about 59,000 deposited reagents. About 1,550 of all reagents (2.6%) count as active. 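G2 share is only a proxy for re-replication; each gene was hit by three separate siRNAs, and active genes were retested.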 Raw values are not corrected between plates. The numbers tell different reagents against one gene apart. Not given: the amount of reagent.

The first 7 entries, to show the layout:
gene symbol | siRNA no. | G2 robust z-score | G2 cells, % of GMNN control | raw share of cells in G2 (%) | outcome
IL31RA | 1 | 0.351 | 5.44 | 6.69 | inactive
IL31RA | 2 | -0.791 | -2.6 | 3.61 | inactive
IL31RA | 3 | 0.131 | 3.89 | 7.81 | inactive
DEFB126 | 1 | 1.25 | 11.8 | 5.98 | inactive
DEFB126 | 2 | -0.954 | -3.75 | 2.86 | inactive
DEFB126 | 3 | -0.569 | -1.03 | 3.15 | inactive
CNOT8 | 1 | 0.035 | 3.21 | 7.42 | inactive

Results, repeating the preview:
gene symbol | siRNA no. | G2 robust z-score | G2 cells, % of GMNN control | raw share of cells in G2 (%) | outcome
IL31RA | 1 | 0.351 | 5.44 | 6.69 | inactive
IL31RA | 2 | -0.791 | -2.6 | 3.61 | inactive
IL31RA | 3 | 0.131 | 3.89 | 7.81 | inactive
DEFB126 | 1 | 1.25 | 11.8 | 5.98 | inactive
DEFB126 | 2 | -0.954 | -3.75 | 2.86 | inactive
DEFB126 | 3 | -0.569 | -1.03 | 3.15 | inactive
CNOT8 | 1 | 0.035 | 3.21 | 7.42 | inactive
CNOT8 | 2 | -0.855 | -3.05 | 2.06 | inactive
CNOT8 | 3 | -0.757 | -2.36 | 2.74 | inactive
DIO2 | 1 | -1.12 | -4.93 | 2.4 | inactive
DIO2 | 2 | 0.587 | 7.1 | 7.49 | inactive
DIO2 | 3 | -0.892 | -3.31 | 3.79 | inactive
NIPA1 | 1 | -0.0997 | 2.27 | 5 | inactive
NIPA1 | 2 | -0.365 | 0.4 | 3.45 | inactive
NIPA1 | 3 | -1.01 | -4.16 | 0.603 | inactive
ZNF485 | 1 | -0.505 | -0.584 | 2.89 | inactive
ZNF485 | 2 | -0.659 | -1.67 | 2.59 | inactive
ZNF485 | 3 | -0.398 | 0.17 | 3.58 | inactive
DSN1 | 1 | -0.481 | -0.42 | 4.27 | inactive
DSN1 | 2 | -0.266 | 1.1 | 4.78 | inactive
DSN1 | 3 | -0.407 | 0.106 | 2.41 | inactive
SMO | 1 | 5.35 | 40.6 | 20.4 | active
SMO | 2 | 0.199 | 4.37 | 6.04 | inactive
SMO | 3 | 1.04 | 10.3 | 6.42 | inactive
LOC643675 (retired record) | 1 | 1.37 | 12.6 | 8.45 | inactive
LOC643675 (retired record) | 2 | 2.22 | 18.6 | 9.95 | inactive
LOC643675 (retired record) | 3 | -0.309 | 0.795 | 3.38 | inactive
RAB42 | 1 | 0.256 | 4.77 | 7.88 | inactive
RAB42 | 2 | 0.773 | 8.4 | 8.57 | inactive
RAB42 | 3 | -0.573 | -1.06 | 4.08 | inactive
OR4A16 | 1 | -0.0217 | 2.81 | 3.15 | inactive
OR4A16 | 2 | 2.55 | 20.9 | 13.1 | inactive
OR4A16 | 3 | 0.582 | 7.06 | 7.39 | inactive
FGFR1 | 1 | -0.615 | -1.36 | 5.16 | inactive
FGFR1 | 2 | -0.847 | -2.99 | 4.4 | inactive
FGFR1 | 3 | -0.593 | -1.21 | 3.6 | inactive
UBQLN2 | 1 | -0.589 | -1.18 | 3.41 | inactive
UBQLN2 | 2 | 0.885 | 9.2 | 8.03 | inactive
UBQLN2 | 3 | 0.958 | 9.71 | 6.31 | inactive
ATP2A3 | 1 | -1.34 | -6.45 | 2.94 | inactive
ATP2A3 | 2 | 0.538 | 6.75 | 7.07 | inactive
ATP2A3 | 3 | -1.08 | -4.63 | 2.57 | inactive
H2BC7 | 1 | 1.51 | 13.6 | 11.2 | inactive
H2BC7 | 2 | -0.162 | 1.83 | 4.62 | inactive
H2BC7 | 3 | -0.592 | -1.2 | 2.92 | inactive
SLC28A2 | 1 | -0.509 | -0.614 | 4.49 | inactive
SLC28A2 | 2 | 0.75 | 8.24 | 8.16 | inactive
SLC28A2 | 3 | -1.19 | -5.38 | 2.09 | inactive
CCDC74A | 1 | 0.22 | 4.52 | 6 | inactive
CCDC74A | 2 | 0.32 | 5.22 | 4.64 | inactive
CCDC74A | 3 | 1.62 | 14.4 | 7.48 | inactive
GCC1 | 1 | -0.349 | 0.512 | 4.8 | inactive
GCC1 | 2 | -0.707 | -2.01 | 3.71 | inactive
GCC1 | 3 | 1.16 | 11.1 | 5.63 | inactive
ARL2BP | 1 | 2.42 | 20 | 11.9 | inactive
ARL2BP | 2 | 2.19 | 18.4 | 11.9 | inactive
ARL2BP | 3 | -0.672 | -1.76 | 2.68 | inactive
CRIP3 | 1 | -0.191 | 1.63 | 6.61 | inactive
CRIP3 | 2 | 0.398 | 5.76 | 7.21 | inactive
CRIP3 | 3 | 0.0821 | 3.55 | 5.58 | inactive
ZNF577 | 1 | 1.3 | 12.1 | 7.07 | inactive
ZNF577 | 2 | -0.744 | -2.27 | 4.88 | inactive
ZNF577 | 3 | -0.00775 | 2.91 | 4.55 | inactive
SCARA5 | 1 | 2.85 | 23 | 13.9 | inactive
SCARA5 | 2 | 0.617 | 7.31 | 6.95 | inactive
SCARA5 | 3 | -0.125 | 2.09 | 6.8 | inactive
TRAF4 | 1 | -0.605 | -1.29 | 2.76 | inactive
TRAF4 | 2 | 2.23 | 18.7 | 12.3 | inactive
TRAF4 | 3 | 0.775 | 8.42 | 8.39 | inactive
MYLIP | 1 | -1.04 | -4.37 | 2.56 | inactive
MYLIP | 2 | 0.631 | 7.41 | 9.52 | inactive
MYLIP | 3 | 2.72 | 22.1 | 11.5 | inactive
B4GALT4 | 1 | 2.5 | 20.5 | 12.1 | inactive
B4GALT4 | 2 | -1.32 | -6.33 | 1.66 | inactive
B4GALT4 | 3 | -0.813 | -2.75 | 4.3 | inactive
SYTL1 | 1 | -0.185 | 1.67 | 4.16 | inactive
SYTL1 | 2 | 0.231 | 4.59 | 4.41 | inactive
SYTL1 | 3 | 1.44 | 13.1 | 11.8 | inactive
DYRK4 | 1 | 1.31 | 12.2 | 9.37 | inactive
DYRK4 | 2 | 5.2 | 39.6 | 19.6 | active
DYRK4 | 3 | 0.838 | 8.87 | 6.52 | inactive
OR51M1 | 1 | 1.66 | 14.7 | 8.8 | inactive
OR51M1 | 2 | 1.05 | 10.4 | 7.91 | inactive
OR51M1 | 3 | 0.316 | 5.19 | 6.86 | inactive
NFE2L3 | 1 | -1.47 | -7.38 | 1.07 | inactive
NFE2L3 | 2 | -0.608 | -1.31 | 5.4 | inactive
NFE2L3 | 3 | 0.789 | 8.52 | 6.91 | inactive
